# Publication PMC11656939
# Sequences of proteins named here, by UniProt entry; tags and fusion partners are left off.
# UniProt P31749: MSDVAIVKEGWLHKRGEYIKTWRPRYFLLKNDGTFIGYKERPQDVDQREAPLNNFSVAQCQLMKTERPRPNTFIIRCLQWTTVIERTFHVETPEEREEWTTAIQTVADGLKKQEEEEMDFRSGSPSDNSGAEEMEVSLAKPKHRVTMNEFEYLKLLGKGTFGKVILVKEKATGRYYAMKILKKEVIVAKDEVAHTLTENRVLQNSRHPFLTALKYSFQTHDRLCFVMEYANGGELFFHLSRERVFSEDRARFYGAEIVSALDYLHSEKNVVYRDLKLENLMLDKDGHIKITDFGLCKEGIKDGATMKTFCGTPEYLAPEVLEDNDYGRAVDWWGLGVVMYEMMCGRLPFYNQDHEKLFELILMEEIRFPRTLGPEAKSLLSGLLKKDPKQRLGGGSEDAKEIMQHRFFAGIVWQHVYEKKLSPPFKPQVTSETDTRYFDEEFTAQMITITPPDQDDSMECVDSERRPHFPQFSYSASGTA
# Results are given in words; binding and its absence hold for the method and conditions named. In cells and extracts the contact can be indirect. Some entries that bind do so weakly or less than the wild type.
# B1: ORP7 (protein, UniProt Q9BZF2 1-842)
# chain: MDFQERDPPFLPESAQSSKPSSAQQASELWEVVEEPRVRLGTEGVMPERQEGHLLKKRKWPLKGWHKRYFVLEDGILHYATTRQDITKGKLHGSIDVRLSVMSINKKAQRIDLDTEDNIYHLKIKSQDLFQSWVAQLRAHRLAHRLDMPRGSLPSTAHRKVPGAQLPTAATASALPGLGPREKVSSWLRDSDGLDRCSHELSECQGKLQELHRLLQSLESLHRIPSAPVIPTHQASVTTERPKKGKRTSRMWCTQSFAKDDTIGRVGRLHGSVPNLSRYLESRDSSGTRGLPPTDYAHLQRSFWALAQKVHSSLSSVLAALTMERDQLRDMHQGSELSRMGVSEASTGQRRLHSLSTSSDTTADSFSSLNPEEQEALYMKGRELTPQLSQTSILSLADSHTEFFDACEVLLSASSSENEGSEEEESCTSEITTSLSEEMLDLRGAERCQKGGCVPGRPMGPPRRRCLPAASGPGADVSLWNILRNNIGKDLSKVSMPVQLNEPLNTLQRLCEELEYSSLLDQASRIADPCERMVYIAAFAVSAYSSTYHRAGCKPFNPVLGETYECERPDRGFRFISEQVSHHPPISACHAESENFAFWQDMKWKNKFWGKSLEIVPVGTVNVSLPRFGDHFEWNKVTSCIHNVLSGQRWIEHYGEVLIRNTQDSSCHCKITFCKAKYWSSNVHEVQGAVLSRSGRVLHRLFGKWHEGLYRGPTPGGQCIWKPNSMPPDHERNFGFTQFALELNELTAELKRSLPSTDTRLRPDQRYLEEGNIQAAEAQKRRIEQLQRDRRKVMEENNIVHQARFFRRQTDSSGKEWWVTNNTYWRLRAEPGYGNMDGAVLW
# Biological target: RAC-alpha serine/threonine-protein kinase (AKT1) (human (endogenous in HUVECs)) (UniProt P31749)
# Experiment: co-IP; wild type HUVEC lysate (150 mM NaCl, 0.5% Triton X-100, 0.5% sodium deoxycholate, protease and phosphatase inhibitors); AKT1 antibody on Protein G magnetic beads, overnight at +4 °C; Western blot; mouse-HRP antibody as negative control
binder,measurement,value
B1,binding,binds
